In PubChem BioAssay AID1347423 (Functional Genomics Laboratory (NCATS/FGL), 2020):
Screen size: about 52,000 sequences; about 210 (0.4%) were called active.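 Rule for the calls: active = gene whose silencing raises cell survival under the drug, median off-target-corrected z-score across its silencing RNAs 2 or more; inactive = the rest.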 The list shows a part of the results.

Test: Resistance to Poly (ADP-Ribose) Polymerase inhibitor: Gene Identification via Genome-wide siRNA Screen
Conditions: mouse BRCA2 R2336H ES cells, olaparib, CellTiter-Glo viability; hits give high values
How it was run: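 Mouse BRCA2 R2336H ES cells were reverse-transfected with siRNA (20 nM final), treated at 48 h with 500 nM olaparib, and read by CellTiter-Glo after 72 h. Scores: MAD-based z per siRNA, median per gene, seed off-target correction.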

| Sequence | z-score |
| --- | --- |
| GGACAAGAUGGUGUCUAUCTT against Olfr1396 | inactive: -1.81 |
| CCUAGACAAAGUUUCAAACTT against Xrcc4 | inactive: 0.484 |
| GGGACAAGUGACUGAAUUGTT against Dio3 | inactive: 0.877 |
| GGUGAUUGUCAAGAUUAUGTT against Olfr651 | inactive: -1.01 |
| GGGCCUAUCUGAAAGUUUATT against Nrm | inactive: 0.622 |
| GGAUUAAUCUGUGGAACUUTT against 2900026H06Rik | inactive: 0.736 |
| GCAACAUAAAAGAUUCUUGTT against Il1f5 | inactive: -0.249 |
| GGCAUCGUAGGAUUUUUUGTT against Mtch2 | inactive: 1.42 |
| GCUCCUAAAAAGGCUCUUUTT against Hist2h2aa1 | inactive: 0.0504 |
| GGAUUUGUAGUUCAUCUCATT against Olfr77 | inactive: -0.394 |
| GGGUUCAAGAAAUGAUAAUTT against F11 | inactive: 0.329 |
| GGCGAUGAUCCGAAAACAGTT against 4831417L10 | inactive: -0.297 |
| GGCAGAGAUGGAGUUGGUCTT against 4933429I20Rik | inactive: -0.739 |
| GCCGUGGAGGCUAAAAUCCTT against D5Ertd135e | inactive: 1.39 |
| GGAAGAUGGAUUGUUUCUUTT against F5 | inactive: 2 |
| GGAAUGUACCAGAAAUACUTT against 4921504E06Rik | inactive: -0.216 |
| GGCUGUUUGUUGUGUUUAATT against Drbp1 | inactive: -0.849 |
| GGAUAGACUGGACAGCAGCTT against Retn | inactive: 0.0248 |
| UCGACUACCUUUGAGUCAGTT against Hoxa4 | inactive: 0.129 |
| GUUUCAAGUAUGUUCUGCATT against A430072C10Rik | inactive: -1.68 |
| GGUGAUCUUCAAAUUGGAGTT against Zfp90 | inactive: -0.401 |
| GGAAUUACGAAGCUGUGUGTT against Cdkl3 | inactive: -0.366 |

| Sequence | z-score |
| --- | --- |
| GUUGCUCAAAGUGUCCAAGTT against Rpl36 | inactive: -2.34 |
| AACCAUGAUGCUUACGUUUTT against S100a10 | inactive: 0.819 |
| GGUUGUUUGCUUACGAUGUTT against BC055368 | inactive: 0.59 |
| GGAGCUGUUCAGACCCAUUTT against E2f7 | inactive: 2.84 |
| GCUUGCAUGUACAGACAUUTT against Olfr517 | inactive: 1.3 |
| CCGCAUCCAGGUUACUACATT against Adcy5 | inactive: 0.156 |
| CUCUAGUGUUACACUUAUUTT against 1110002N22Rik | inactive: 0.345 |
| GGUAGAGAUCAUCAAUGCATT against Ggtla1 | inactive: 0.0179 |
| GCUUUAAGAAAGAUUGACCTT against 5830433M19Rik | inactive: 0.481 |
| GCUUGUACGAUGUUACCCATT against Fbxo32 | inactive: 0.939 |
| GGAUCCACCAGUUAAGAAATT against 4932408F19Rik | inactive: -0.91 |
| GCCAAAUUAGCAGCUUGUGTT against Rln3 | inactive: 0.339 |
| GGGCAUUCUACUUCAGAGATT against Orc2l | inactive: -1.22 |
| GGAGCUGUGGAAGAAGUUCTT against Tbx4 | inactive: 0.382 |
| GGGAGAAUAUCAUGACCAATT against E330018D03Rik | inactive: 0.658 |
| GCAGGUAAGUUAAAUGAUGTT against 5830402J09 | inactive: -0.281 |
| CCCGUGCUUCAAAUAGAGATT against Prkcdbp | inactive: 1.53 |
| GGACCAGAAACUGUAUGCATT against Wrn | inactive: 1.04 |
| GGACAGAUUACAUCACUUCTT against Sip1 | inactive: -0.135 |
| GGAGCAUUAGUCAUUGUUATT against Hsd17b4 | inactive: -0.163 |
| GGGAGAUUUGUUCUAGUUUTT against E2f2 | inactive: 0.0911 |
| GGAUAAACCCUACGUUCUATT against 2210409B01Rik | inactive: -0.22 |

| Sequence | z-score |
| --- | --- |
| GGUGAAAAACCAUUUUGUUTT against 8030466O12Rik | inactive: 0.911 |
| GGAAAGUGGAAGACAUUUUTT against Olfr1324 | inactive: -0.0518 |
| GGUCAUAAGCUAUUCCUGUTT against V1rd12 | inactive: 1.51 |
| GGACAAGAGGCUUUCAUAUTT against Gabrb1 | inactive: 0.983 |
| CCUGUUGAAGUUUCUGGAATT against 0610007H07Rik | inactive: -0.0812 |
| GGACAGAAAGAACUUGUCGTT against Sema5a | inactive: -2.28 |
| GGUAAAAUUCCAGAGUUGUTT against Serpinb9 | inactive: -0.671 |
| CGCAGCAGUUGUGGUCAAUTT against Nnat | inactive: 0.62 |
| GGUGGGAAAGGAAUUUGACTT against 2010001H14Rik | inactive: 0.314 |
| CCCGGUUGUCUGGAUAUGATT against Map3k3 | inactive: -0.363 |
| GGCUGUGAGAACGAUGCAATT against BC026682 | inactive: -1.78 |
| GGAAGAUGUUAAGAGUUACTT against Slc1a3 | inactive: 1.22 |
| GCAGUUUGGUGAAUCCAGCTT against 4933414E04Rik | inactive: -0.284 |
| GGGUUGGUACCUAAGAAUGTT against E2f4 | inactive: -0.32 |
| CGCCAUUUACACUUCCUGCTT against Sval2 | inactive: 1.4 |
| GGUGCCUUCCAAAAUUACGTT against Slc22a7 | inactive: 0.853 |
| GCUCAUUAUUAAACUUACCTT against Tfrc | inactive: -0.254 |
| GGAAAGGCUCAAUGAGAGCTT against 3830408P04Rik | inactive: 1.62 |
| GGAGCUGAAGAUGAGUUUGTT against Abhd4 | inactive: 1.22 |
| GGCCUACUUUGAUGUUAAATT against Cdc23 | inactive: 0.479 |
| GGCCAUUUUAUUGUAUGUUTT against BC027088 | inactive: -0.486 |
| GCACGUCCAUUCUGCUUUCTT against BC017612 | inactive: -0.0127 |

Look-ups from the entries so far.
CCUGUUGAAGUUUCUGGAATT against 0610007H07Rik – z-score: inactive: -0.0812
GCACGUCCAUUCUGCUUUCTT against BC017612 – z-score: inactive: -0.0127
GGACAAGAGGCUUUCAUAUTT against Gabrb1 – z-score: inactive: 0.983
GGAGCUGAAGAUGAGUUUGTT against Abhd4 – z-score: inactive: 1.22
